Twelve molecules from patent publication US20230242871A1, “GENERATION OF PRIMORDIAL GERM CELLS AND METHODS OF USING THE SAME” (The Board of Trustees of the Leland Stanfor Junior …, priority 2020, published 2023) can be followed below.

B1: CD20 (protein, UniProt P11836 1-297, looked up)
B-lymphocyte antigen CD20: MTTPRNSVNGTFPAEPMKGPIAMQSGPKPLFRRMSSLVGPTQSFFMRESKTLGAVQIMNGLFHIALGGLLMIPAGIYAPICVTVWYPLWGGIMYIISGSLLAATEKNSRKCLVKGKMIMNSLSLFAAISGMILSIMDILNIKISHFLKMESLNFIRAHTPYINIYNCEPANPSEKNSPSTQYCYSIQSLFLGILSVMLIFAFFQELVIAGIVENEWKRTCSRPKSNIVLLSAEEKKEQTIEIKEEVVGLTETSSQPKNEEDIEIIPIQEEEEEETETNFPEPPQDQESSPIENDSSP
B2: CD92 (protein, UniProt Q8WWI5 2-657, looked up)
Choline transporter-like …: GCCSSASSAAQSSKREWKPLEDRSCTDIPWLLLFILFCIGMGFICGFSIATGAAARLVSGYDSYGNICGQKNTKLEAIPNSGMDHTQRKYVFFLDPCNLDLINRKIKSVALCVAACPRQELKTLSDVQKFAEINGSALCSYNLKPSEYTTSPKSSVLCPKLPVPASAPIPFFHRCAPVNISCYAKFAEALITFVSDNSVLHRLISGVMTSKEIILGLCLLSLVLSMILMVIIRYISRVLVWILTILVILGSLGGTGVLWWLYAKQRRSPKETVTPEQLQIAEDNLRALLIYAISATVFTVILFLIMLVMRKRVALTIALFHVAGKVFIHLPLLVFQPFWTFFALVLFWVYWIMTLLFLGTTGSPVQNEQGFVEFKISGPLQYMWWYHVVGLIWISEFILACQQMTVAGAVVTYYFTRDKRNLPFTPILASVNRLIRYHLGTVAKGSFIITLVKIPRMILMYIHSQLKGKENACARCVLKSCICCLWCLEKCLNYLNQNAYTATAINSTNFCTSAKDAFVILVENALRVATINTVGDFMLFLGKVLIVCSTGLAGIMLLNYQQDYTVWVLPLIIVCLFAFLVAHCFLSIYEMVVDVLFLCFAIDTKYNDGSPGREFYMDKVLMEFVENSRKAMKEAGKGGVADSRELKPMASGASSA
B3: CD129 (protein, UniProt Q01113 41-521, looked up)
Interleukin-9 receptor: SVTGEGQGPRSRTFTCLTNNILRIDCHWSAPELGQGSSPWLLFTSNQAPGGTHKCILRGSECTVVLPPEAVLVPSDNFTITFHHCMSGREQVSLVDPEYLPRRHVKLDPPSDLQSNISSGHCILTWSISPALEPMTTLLSYELAFKKQEEAWEQAQHRDHIVGVTWLILEAFELDPGFIHEARLRVQMATLEDDVVEEERYTGQWSEWSQPVCFQAPQRQGPLIPPWGWPGNTLVAVSIFLLLTGPTYLLFKLSPRVKRIFYQNVPSPAMFFQPLYSVHNGNFQTWMGAHGAGVLLSQDCAGTPQGALEPCVQEATALLTCGPARPWKSVALEEEQEGPGTRLPGNLSSEDVLPAGCTEWRVQTLAYLPQEDWAPTSLTRPAPPDSEGSRSSSSSSSSNNNNYCALGCYGGWHLSALPGNTQSSGPIPALACGLSCDHQGLETQQGVAWVLAGHCQRPGLHEDLQGMLLPSVLSKARSWTF
B4: IL-28RA (protein, UniProt Q8IU57 21-520, looked up)
Interferon lambda receptor 1: RPRLAPPQNVTLLSQNFSVYLTWLPGLGNPQDVTYFVAYQSSPTRRRWREVEECAGTKELLCSMMCLKKQDLYNKFKGRVRTVSPSSKSPWVESEYLDYLFEVEPAPPVLVLTQTEEILSANATYQLPPCMPPLDLKYEVAFWKEGAGNKTLFPVTPHGQPVQITLQPAASEHHCLSARTIYTFSVPKYSKFSKPTCFLLEVPEANWAFLVLPSLLILLLVIAAGGVIWKTLMGNPWFQRAKMPRALDFSGHTHPVATFQPSRPESVNDLFLCPQKELTRGVRPTPRVRAPATQQTRWKKDLAEDEEEEDEEDTEDGVSFQPYIEPPSFLGQEHQAPGHSEAGGVDSGRPRAPLVPSEGSSAWDSSDRSWASTVDSSWDRAGSSGYLAEKGPGQGPGGDGHQESLPPPEFSKDSGFLEELPEDNLSSWATWGTLPPEPNLVPGGPPVSLQTLTFCWESSPEEEEEARESEIEDSDAGSWGAESTQRTEDRGRTLGHYMAR
B5: CD201 (protein, UniProt Q9UNN8 18-238, looked up)
Endothelial protein C receptor: SQDASDGLQRLHMLQISYFRDPYHVWYQGNASLGGHLTHVLEGPDTNTTIIQLQPLQEPESWARTQSGLQSYLLQFHGLVRLVHQERTLAFPLTIRCFLGCELPPEGSRAHVFFEVAVNGSSFVSFRPERALWQADTQVTSGVVTFTLQQLNAYNRTRYELREFLEDTCVQYVQKHISAENTKGSQTSRSYTSLVLGVLVGSFIIAGVAVGIFLCTGGRRC
B6: CD326 (protein, UniProt P16422 24-314, looked up)
Epithelial cell adhesion …: QEECVCENYKLAVNCFVNNNRQCQCTSVGAQNTVICSKLAAKCLVMKAEMNGSKLGRRAKPEGALQNNDGLYDPDCDESGLFKAKQCNGTSMCWCVNTAGVRRTDKDTEITCSERVRTYWIIIELKHKAREKPYDSKSLRTALQKEITTRYQLDPKFITSILYENNVITIDLVQNSSQKTQNDVDIADVAYYFEKDVKGESLFHSKKMDLTVNGEQLDLDPGQTLIYYVDEKAPEFSMQGLKAGVIAVIVVVVIAVVAGIVVLVISRKKRMAKYEKAEIKEMGEMHRELNA
B7: CD255 (protein, UniProt O43508 94-249, looked up)
Tumor necrosis factor ligand …: SAPKGRKTRARRAIAAHYEVHPRPGQDGAQAGVDGTVSGWEEARINSSSPLRYNRQIGEFIVTRAGLYYLYCQVHFDEGKAVYLKLDLLVDGVLALRCLEEFSATAASSLGPQLRLCQVSGLLALRPGSSLRIRTLPWAHLKAAPFLTYFGLFQVH
B8: MRGX2 (protein, UniProt Q96LB1 1-330, looked up)
Mas-related G-protein coupled …: MDPTTPAWGTESTTVNGNDQALLLLCGKETLIPVFLILFIALVGLVGNGFVLWLLGFRMRRNAFSVYVLSLAGADFLFLCFQIINCLVYLSNFFCSISINFPSFFTTVMTCAYLAGLSMLSTVSTERCLSVLWPIWYRCRRPRHLSAVVCVLLWALSLLLSILEGKFCGFLFSDGDSGWCQTFDFITAAWLIFLFMVLCGSSLALLVRILCGSRGLPLTRLYLTILLTVLVFLLCGLPFGIQWFLILWIWKDSDVLFCHIHPVSVVLSSLNSSANPIIYFFVGSFRKQWRLQQPILKLALQRALQDIAEVDHSEGCFRQGTPEMSRSSLV
B9: CD85h (protein, UniProt Q8N149 24-483, looked up)
Leukocyte immunoglobulin-like …: GHLPKPTLWAEPGSVIIQGSPVTLRCQGSLQAEEYHLYRENKSASWVRRIQEPGKNGQFPIPSITWEHAGRYHCQYYSHNHSSEYSDPLELVVTGAYSKPTLSALPSPVVTSGGNVTLQCVSQVAFDGFILCKEGEDEHPQRLNSHSHARGWSWAIFSVGPVSPSRRWSYRCYAYDSNSPYVWSLPSDLLELLVPGVSKKPSLSVQPGPMVAPGESLTLQCVSDVGYDRFVLYKEGERDFLQRPGWQPQAGLSQANFTLGPVSPSHGGQYRCYSAHNLSSEWSAPSDPLDILITGQFYDRPSLSVQPVPTVAPGKNVTLLCQSRGQFHTFLLTKEGAGHPPLHLRSEHQAQQNQAEFRMGPVTSAHVGTYRCYSSLSSNPYLLSLPSDPLELVVSEAAETLSPSQNKTDSTTTSLGQHPQDYTVENLIRMGVAGLVLVVLGILLFEAQHSQRSLQDAAGR
B10: Delta Opioid Receptor (protein, UniProt P41143 1-372, looked up)
Delta-type opioid receptor: MEPAPSAGAELQPPLFANASDAYPSACPSAGANASGPPGARSASSLALAIAITALYSAVCAVGLLGNVLVMFGIVRYTKMKTATNIYIFNLALADALATSTLPFQSAKYLMETWPFGELLCKAVLSIDYYNMFTSIFTLTMMSVDRYIAVCHPVKALDFRTPAKAKLINICIWVLASGVGVPIMVMAVTRPRDGAVVCMLQFPSPSWYWDTVTKICVFLFAFVVPILIITVCYGLMLLRLRSVRLLSGSKEKDRSLRRITRMVLVVVGAFVVCWAPIHIFVIVWTLVDIDRRDPLVVAALHLCIALGYANSSLNPVLYAFLDENFKRCFRQLCRKPCGRPDPSSFSRAREATARERVTACTPSDGPGGGAAA
B11: TACSTD2 (protein, UniProt P09758 27-323, looked up)
Tumor-associated calcium …: HTAAQDNCTCPTNKMTVCSPDGPGGRCQCRALGSGMAVDCSTLTSKCLLLKARMSAPKNARTLVRPSEHALVDNDGLYDPDCDPEGRFKARQCNQTSVCWCVNSVGVRRTDKGDLSLRCDELVRTHHILIDLRHRPTAGAFNHSDLDAELRRLFRERYRLHPKFVAAVHYEQPTIQIELRQNTSQKAAGDVDIGDAAYYFERDIKGESLFQGRGGLDLRVRGEPLQVERTLIYYLDEIPPKFSMKRLTAGLIAVIVVVVVALVAGMAVLVITNRRKSGKYKKVEIKELGELRKEPSL
B12: CD122 (protein, UniProt P14784 27-551, looked up)
Interleukin-2 receptor …: AVNGTSQFTCFYNSRANISCVWSQDGALQDTSCQVHAWPDRRRWNQTCELLPVSQASWACNLILGAPDSQKLTTVDIVTLRVLCREGVRWRVMAIQDFKPFENLRLMAPISLQVVHVETHRCNISWEISQASHYFERHLEFEARTLSPGHTWEEAPLLTLKQKQEWICLETLTPDTQYEFQVRVKPLQGEFTTWSPWSQPLAFRTKPAALGKDTIPWLGHLLVGLSGAFGFIILVYLLINCRNTGPWLKKVLKCNTPDPSKFFSQLSSEHGGDVQKWLSSPFPSSSFSPGGLAPEISPLEVLERDKVTQLLLQQDKVPEPASLSSNHSLTSCFTNQGYFFFHLPDALEIEACQVYFTYDPYSEEDPDEGVAGAPTGSSPQPLQPLSGEDDAYCTFPSRDDLLLFSPSLLGGPSPPSTAPGGSGAGEERMPPSLQERVPRDWDPQPLGPPTPGVPDLVDFQPPPELVLREAGEEVPDAGPREGVSFPWSRPPGQGEFRALNARLPLNTDAYLSLQELQGQDPTHLV

One data set relates to D3.5 SOX17-GFP- non-PGCs. The data set can be described thus: High-throughput cell-surface marker screening (LEGENDScreen), %PE+. The following applies: percentage of cells bound to the PE-conjugated antibody (LEGENDScreen). It is filed as cell-based, human.
B1: the “% PE+ in non-PGCs” value was determined as 7.085E-05%.

On to B2, for which the “% PE+ in non-PGCs” value was determined as 0.8663%.

Take B3: the “% PE+ in non-PGCs” value came to 0.0005766%.

With B4, the “% PE+ in non-PGCs” value turned out to be 6.926E-05%.

Consider B5, for which the “% PE+ in non-PGCs” value came out at 0.4119%.

B6: the “% PE+ in non-PGCs” value turned out to be 0.9527%.

Consider B7, for which the “% PE+ in non-PGCs” value was found to be 0.006777%.

As for B8, the “% PE+ in non-PGCs” value amounted to 0.0008284%.

As for B9, the “% PE+ in non-PGCs” value turned out to be 0.0003134%.

Regarding B10, the “% PE+ in non-PGCs” value worked out at 0.005966%.

Turning to B11, the “% PE+ in non-PGCs” value turned out to be 0.2176%.

On to B12, for which the “% PE+ in non-PGCs” value is reported as 1.814E-05%.

The subject of a further data set is D3.5 SOX17-GFP+ PGCs. The data set is described as above. It is filed as cell-based, human. The settings on record: percentage of cells bound to the PE-conjugated antibody (LEGENDScreen).
As to B1, the “% PE+ in PGCs” value amounted to 0%.

Turning to B2, the “% PE+ in PGCs” value was 0.8537%.

Turning to B3, the “% PE+ in PGCs” value is reported as 0%.

Turning to B4, the “% PE+ in PGCs” value came to 0%.

B5: the “% PE+ in PGCs” value was 0.113%.

For B6, the “% PE+ in PGCs” value is 1%.

On to B7, for which the “% PE+ in PGCs” value was 0.003226%.

As to B8, the “% PE+ in PGCs” value amounted to 0%.

For B9, the “% PE+ in PGCs” value came to 0%.

As to B10, the “% PE+ in PGCs” value is 0.007076%.

For the molecule B11, the “% PE+ in PGCs” value amounted to 0.1081%.

For B12, the “% PE+ in PGCs” value is recorded as 0.001375%.

In another data set the test system is undifferentiated hPSC (D0). The description is as above. The following applies: percentage of cells bound to the PE-conjugated antibody (LEGENDScreen). It is filed as cell-based, human.
On to B1, for which the “% PE+ in H1 UD” value came to 0.041%.

With B2, the “% PE+ in H1 UD” value came out at 95.5%.

Consider B3, for which the “% PE+ in H1 UD” value amounted to 0.39%.

As for B4, the “% PE+ in H1 UD” value is 0.17%.

Turning to B5, the “% PE+ in H1 UD” value is on record as 96.5%.

As for B6, the “% PE+ in H1 UD” value was found to be 99.6%.

Consider B7, for which the “% PE+ in H1 UD” value was 0.99%.

Take B8: the “% PE+ in H1 UD” value was determined as 0.2%.

On to B9, for which the “% PE+ in H1 UD” value amounted to 0.14%.

With B10, the “% PE+ in H1 UD” value worked out at 0.21%.

Turning to B11, the “% PE+ in H1 UD” value turned out to be 17.9%.

Regarding B12, the “% PE+ in H1 UD” value is given as 0.087%.
